No constants are given. Whether binding was seen depends on the method and setting. In cells and extracts the contact can be indirect. Some binding calls cover weakened binding; strength is not graded here. Each block holds one binder with its values, some of them ahead of it.
Biological target: pleckstrin homology-like domain family A member 1 (human (endogenous in IMR-32)) (UniProt Q8WV24)
Test: co-IP; endogenous PHLDA1 precipitated with mouse anti-PHLDA1 (sc-23866) on Dynabeads Protein G from pre-cleared lysates of control or ch14.18/CHO-treated IMR-32 cells (1 mg protein); isotype IgG2a control; eluate immunoblotted for DCAF7 and AUTS2

The chains behind the UniProt entries cited, without tags or fusion partners.
UniProt Q8WV24: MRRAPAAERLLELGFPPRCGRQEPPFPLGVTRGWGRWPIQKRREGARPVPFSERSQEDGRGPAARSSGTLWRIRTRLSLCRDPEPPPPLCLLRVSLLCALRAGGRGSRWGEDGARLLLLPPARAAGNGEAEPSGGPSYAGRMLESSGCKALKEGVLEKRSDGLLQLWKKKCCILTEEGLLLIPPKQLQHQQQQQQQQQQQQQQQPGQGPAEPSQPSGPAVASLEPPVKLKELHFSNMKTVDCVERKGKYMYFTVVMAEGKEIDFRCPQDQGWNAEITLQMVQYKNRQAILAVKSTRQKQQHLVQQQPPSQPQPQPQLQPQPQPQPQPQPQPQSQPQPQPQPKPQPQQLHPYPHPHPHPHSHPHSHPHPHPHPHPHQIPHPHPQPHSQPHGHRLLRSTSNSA

binding: binds
B1: autism susceptibility gene 2 protein (protein, UniProt Q8WXX7 1-1259)
chain: MDGPTRGHGLRKKRRSRSQRDRERRSRGGLGAGAAGGGGAGRTRALSLASSSGSDKEDNGKPPSSAPSRPRPPRRKRRESTSAEEDIIDGFAMTSFVTFEALEKDVALKPQERVEKRQTPLTKKKREALTNGLSFHSKKSRLSHPHHYSSDRENDRNLCQHLGKRKKMPKALRQLKPGQNSCRDSDSESASGESKGFHRSSSRERLSDSSAPSSLGTGYFCDSDSDQEEKASDASSEKLFNTVIVNKDPELGVGTLPEHDSQDAGPIVPKISGLERSQEKSQDCCKEPIFEPVVLKDPCPQVAQPIPQPQTEPQLRAPSPDPDLVQRTEAPPQPPPLSTQPPQGPPEAQLQPAPQPQVQRPPRPQSPTQLLHQNLPPVQAHPSAQSLSQPLSAYNSSSLSLNSLSSSRSSTPAKTQPAPPHISHHPSASPFPLSLPNHSPLHSFTPTLQPPAHSHHPNMFAPPTALPPPPPLTSGSLQVAGHPAGSTYSEQDILRQELNTRFLASQSADRGASLGPPPYLRTEFHQHQHQHQHTHQHTHQHTFTPFPHAIPPTAIMPTPAPPMFDKYPTKVDPFYRHSLFHSYPPAVSGIPPMIPPTGPFGSLQGAFQPKTSNPIDVAARPGTVPHTLLQKDPRLTDPFRPMLRKPGKWCAMHVHIAWQIYHHQQKVKKQMQSDPHKLDFGLKPEFLSRPPGPSLFGAIHHPHDLARPSTLFSAAGAAHPTGTPFGPPPHHSNFLNPAAHLEPFNRPSTFTGLAAVGGNAFGGLGNPSVTPNSMFGHKDGPSVQNFSNPHEPWNRLHRTPPSFPTPPPWLKPGELERSASAAAHDRDRDVDKRDSSVSKDDKERESVEKRHSSHPSPAPVLPVNALGHTRSSTEQIRAHLNTEAREKDKPKERERDHSESRKDLAADEHKAKEGHLPEKDGHGHEGRAAGEEAKQLARVPSPYVRTPVVESARPNSTSSREAEPRKGEPAYENPKKSSEVKVKEERKEDHDLPPEAPQTHRASEPPPPNSSSSVHPGPLASMPMTVGVTGIHPMNSISSLDRTRMMTPFMGISPLPGGERFPYPSFHWDPIRDPLRDPYRELDIHRRDPLGRDFLLRNDPLHRLSTPRLYEADRSFRDREPHDYSHHHHHHHHPLSVDPRREHERGGHLDERERLHMLREDYEHTRLHSVHPASLDGHLPHPSLITPGLPSMHYPRISPTAGNQNGLLNKTPPTAALSAPPPLISTLGGRPVSPRRTTPLSAEIRERPPSHTLKDIEAR

binding: binds
B2: DDB1- and CUL4-associated factor 7 (protein, UniProt P61962 1-342)
chain: MSLHGKRKEIYKYEAPWTVYAMNWSVRPDKRFRLALGSFVEEYNNKVQLVGLDEESSEFICRNTFDHPYPTTKLMWIPDTKGVYPDLLATSGDYLRVWRVGETETRLECLLNNNKNSDFCAPLTSFDWNEVDPYLLGTSSIDTTCTIWGLETGQVLGRVNLVSGHVKTQLIAHDKEVYDIAFSRAGGGRDMFASVGADGSVRMFDLRHLEHSTIIYEDPQHHPLLRLCWNKQDPNYLATMAMDGMEVVILDVRVPCTPVARLNNHRACVNGIAWAPHSSCHICTAADDHQALIWDIQQMPRAIEDPILAYTAEGEINNVQWASTQPDWIAICYNNCLEILRV
